# The supplement of paper PMC12067093, “Discovery and optimisation of a covalent ligand for TRIM25 and its application to targeted protein ubiquitination” (Chemical Science, 2025)
# Amino acid sequences for entries named in this document (tags omitted). A change or cut given only in a name is not applied to a line headed by its entry.
# UniProt Q9P2I0: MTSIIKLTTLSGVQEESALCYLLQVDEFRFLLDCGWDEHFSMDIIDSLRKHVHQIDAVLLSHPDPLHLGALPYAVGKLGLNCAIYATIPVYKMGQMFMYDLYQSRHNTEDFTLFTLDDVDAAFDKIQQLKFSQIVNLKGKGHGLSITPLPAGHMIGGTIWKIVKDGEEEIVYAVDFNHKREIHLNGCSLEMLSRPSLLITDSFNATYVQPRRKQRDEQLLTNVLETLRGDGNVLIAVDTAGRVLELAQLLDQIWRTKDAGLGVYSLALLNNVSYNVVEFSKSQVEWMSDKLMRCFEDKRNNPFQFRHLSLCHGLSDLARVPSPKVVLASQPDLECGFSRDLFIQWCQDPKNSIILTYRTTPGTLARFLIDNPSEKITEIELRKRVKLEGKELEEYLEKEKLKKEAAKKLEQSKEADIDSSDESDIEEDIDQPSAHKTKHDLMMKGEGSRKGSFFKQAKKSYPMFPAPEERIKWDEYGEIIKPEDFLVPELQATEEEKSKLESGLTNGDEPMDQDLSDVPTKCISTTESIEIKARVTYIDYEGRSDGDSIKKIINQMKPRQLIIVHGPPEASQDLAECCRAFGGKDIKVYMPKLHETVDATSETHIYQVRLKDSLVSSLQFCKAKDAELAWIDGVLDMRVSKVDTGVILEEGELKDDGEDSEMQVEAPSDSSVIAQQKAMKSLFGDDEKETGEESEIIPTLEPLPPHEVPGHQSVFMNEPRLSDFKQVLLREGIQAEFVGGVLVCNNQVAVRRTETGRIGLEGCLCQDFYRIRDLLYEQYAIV
# UniProt P17812: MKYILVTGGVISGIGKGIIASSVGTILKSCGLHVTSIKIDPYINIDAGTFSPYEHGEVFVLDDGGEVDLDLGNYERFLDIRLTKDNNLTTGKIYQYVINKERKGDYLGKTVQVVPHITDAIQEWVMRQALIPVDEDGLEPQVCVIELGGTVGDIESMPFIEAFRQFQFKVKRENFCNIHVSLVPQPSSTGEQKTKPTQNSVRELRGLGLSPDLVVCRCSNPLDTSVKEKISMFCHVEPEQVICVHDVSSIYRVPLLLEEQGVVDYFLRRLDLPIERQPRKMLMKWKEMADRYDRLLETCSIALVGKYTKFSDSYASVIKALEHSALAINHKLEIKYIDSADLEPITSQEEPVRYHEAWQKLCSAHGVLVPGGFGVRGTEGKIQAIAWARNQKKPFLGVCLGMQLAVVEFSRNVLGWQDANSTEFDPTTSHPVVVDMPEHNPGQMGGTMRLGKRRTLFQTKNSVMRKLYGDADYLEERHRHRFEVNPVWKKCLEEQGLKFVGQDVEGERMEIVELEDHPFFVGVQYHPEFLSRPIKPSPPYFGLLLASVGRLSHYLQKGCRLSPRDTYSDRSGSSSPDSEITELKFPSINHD
# UniProt P67870, whole entry, looked up: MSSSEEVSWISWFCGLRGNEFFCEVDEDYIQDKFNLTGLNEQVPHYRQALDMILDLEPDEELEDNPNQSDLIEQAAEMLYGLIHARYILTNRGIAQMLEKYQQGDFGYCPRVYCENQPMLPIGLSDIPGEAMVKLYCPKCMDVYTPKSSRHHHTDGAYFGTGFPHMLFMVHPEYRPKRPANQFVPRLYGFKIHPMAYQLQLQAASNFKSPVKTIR
# UniProt P35221: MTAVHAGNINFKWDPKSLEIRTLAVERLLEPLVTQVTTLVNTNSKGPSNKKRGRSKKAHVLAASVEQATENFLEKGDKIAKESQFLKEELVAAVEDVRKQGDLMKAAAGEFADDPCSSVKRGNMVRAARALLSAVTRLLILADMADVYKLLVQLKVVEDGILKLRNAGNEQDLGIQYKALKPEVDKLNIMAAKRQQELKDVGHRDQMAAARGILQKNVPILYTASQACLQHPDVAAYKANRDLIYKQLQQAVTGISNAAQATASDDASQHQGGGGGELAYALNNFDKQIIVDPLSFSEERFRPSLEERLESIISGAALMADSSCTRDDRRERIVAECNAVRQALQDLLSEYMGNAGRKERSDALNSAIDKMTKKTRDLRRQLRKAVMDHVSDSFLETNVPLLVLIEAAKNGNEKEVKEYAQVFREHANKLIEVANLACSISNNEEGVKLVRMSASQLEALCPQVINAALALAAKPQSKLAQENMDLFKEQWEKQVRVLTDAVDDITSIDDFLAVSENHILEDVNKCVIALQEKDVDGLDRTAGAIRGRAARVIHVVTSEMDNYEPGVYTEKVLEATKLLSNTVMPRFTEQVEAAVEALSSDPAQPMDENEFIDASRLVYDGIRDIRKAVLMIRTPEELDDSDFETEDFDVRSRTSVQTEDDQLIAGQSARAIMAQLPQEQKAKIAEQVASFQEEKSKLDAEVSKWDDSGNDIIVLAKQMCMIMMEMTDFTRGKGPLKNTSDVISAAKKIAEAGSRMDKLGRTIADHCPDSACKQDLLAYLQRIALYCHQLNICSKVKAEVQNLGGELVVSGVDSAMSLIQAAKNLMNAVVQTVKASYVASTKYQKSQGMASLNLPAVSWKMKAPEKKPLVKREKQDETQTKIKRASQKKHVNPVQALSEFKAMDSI
# UniProt Q9NRF8: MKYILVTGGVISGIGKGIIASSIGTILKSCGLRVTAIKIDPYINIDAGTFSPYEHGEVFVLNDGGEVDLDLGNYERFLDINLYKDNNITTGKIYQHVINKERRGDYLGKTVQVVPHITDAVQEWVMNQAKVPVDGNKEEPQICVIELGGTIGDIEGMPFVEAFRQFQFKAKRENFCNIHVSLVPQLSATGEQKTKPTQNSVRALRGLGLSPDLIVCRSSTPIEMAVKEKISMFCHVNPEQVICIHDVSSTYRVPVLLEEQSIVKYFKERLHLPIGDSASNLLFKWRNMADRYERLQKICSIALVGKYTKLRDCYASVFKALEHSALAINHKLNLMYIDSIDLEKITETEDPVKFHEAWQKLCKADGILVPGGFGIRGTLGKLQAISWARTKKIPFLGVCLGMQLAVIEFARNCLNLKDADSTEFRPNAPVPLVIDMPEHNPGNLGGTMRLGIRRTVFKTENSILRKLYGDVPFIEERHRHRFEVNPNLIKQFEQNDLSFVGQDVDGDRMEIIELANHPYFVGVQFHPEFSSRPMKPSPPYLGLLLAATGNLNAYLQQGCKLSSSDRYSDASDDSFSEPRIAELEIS
# UniProt O75390: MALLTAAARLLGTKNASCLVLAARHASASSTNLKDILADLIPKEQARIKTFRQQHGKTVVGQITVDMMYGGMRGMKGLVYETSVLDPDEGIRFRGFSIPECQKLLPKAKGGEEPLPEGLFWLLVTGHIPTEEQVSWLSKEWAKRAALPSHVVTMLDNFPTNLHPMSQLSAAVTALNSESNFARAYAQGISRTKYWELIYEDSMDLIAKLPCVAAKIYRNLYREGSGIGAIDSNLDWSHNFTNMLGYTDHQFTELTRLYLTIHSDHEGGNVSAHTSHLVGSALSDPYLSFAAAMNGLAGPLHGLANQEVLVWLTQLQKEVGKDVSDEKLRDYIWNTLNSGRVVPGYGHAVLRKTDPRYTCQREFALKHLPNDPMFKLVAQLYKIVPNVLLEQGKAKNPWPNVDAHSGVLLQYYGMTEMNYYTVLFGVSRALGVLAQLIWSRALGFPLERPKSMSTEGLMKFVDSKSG
# UniProt P41240: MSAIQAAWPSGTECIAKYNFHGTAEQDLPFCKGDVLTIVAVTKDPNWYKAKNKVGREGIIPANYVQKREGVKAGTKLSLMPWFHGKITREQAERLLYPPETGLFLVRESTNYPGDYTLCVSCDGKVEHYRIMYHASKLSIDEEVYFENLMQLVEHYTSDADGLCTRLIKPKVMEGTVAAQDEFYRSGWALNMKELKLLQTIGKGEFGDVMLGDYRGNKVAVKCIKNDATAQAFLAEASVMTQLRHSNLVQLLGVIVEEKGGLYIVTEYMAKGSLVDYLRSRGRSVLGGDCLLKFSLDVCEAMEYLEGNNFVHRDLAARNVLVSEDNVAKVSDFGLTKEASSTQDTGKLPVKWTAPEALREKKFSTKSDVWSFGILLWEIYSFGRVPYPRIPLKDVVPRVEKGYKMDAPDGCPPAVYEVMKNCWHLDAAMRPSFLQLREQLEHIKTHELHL
# UniProt P14854, whole entry, looked up: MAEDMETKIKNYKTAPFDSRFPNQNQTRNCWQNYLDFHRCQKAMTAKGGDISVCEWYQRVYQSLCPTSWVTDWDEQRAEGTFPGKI
# UniProt Q9Y5B0: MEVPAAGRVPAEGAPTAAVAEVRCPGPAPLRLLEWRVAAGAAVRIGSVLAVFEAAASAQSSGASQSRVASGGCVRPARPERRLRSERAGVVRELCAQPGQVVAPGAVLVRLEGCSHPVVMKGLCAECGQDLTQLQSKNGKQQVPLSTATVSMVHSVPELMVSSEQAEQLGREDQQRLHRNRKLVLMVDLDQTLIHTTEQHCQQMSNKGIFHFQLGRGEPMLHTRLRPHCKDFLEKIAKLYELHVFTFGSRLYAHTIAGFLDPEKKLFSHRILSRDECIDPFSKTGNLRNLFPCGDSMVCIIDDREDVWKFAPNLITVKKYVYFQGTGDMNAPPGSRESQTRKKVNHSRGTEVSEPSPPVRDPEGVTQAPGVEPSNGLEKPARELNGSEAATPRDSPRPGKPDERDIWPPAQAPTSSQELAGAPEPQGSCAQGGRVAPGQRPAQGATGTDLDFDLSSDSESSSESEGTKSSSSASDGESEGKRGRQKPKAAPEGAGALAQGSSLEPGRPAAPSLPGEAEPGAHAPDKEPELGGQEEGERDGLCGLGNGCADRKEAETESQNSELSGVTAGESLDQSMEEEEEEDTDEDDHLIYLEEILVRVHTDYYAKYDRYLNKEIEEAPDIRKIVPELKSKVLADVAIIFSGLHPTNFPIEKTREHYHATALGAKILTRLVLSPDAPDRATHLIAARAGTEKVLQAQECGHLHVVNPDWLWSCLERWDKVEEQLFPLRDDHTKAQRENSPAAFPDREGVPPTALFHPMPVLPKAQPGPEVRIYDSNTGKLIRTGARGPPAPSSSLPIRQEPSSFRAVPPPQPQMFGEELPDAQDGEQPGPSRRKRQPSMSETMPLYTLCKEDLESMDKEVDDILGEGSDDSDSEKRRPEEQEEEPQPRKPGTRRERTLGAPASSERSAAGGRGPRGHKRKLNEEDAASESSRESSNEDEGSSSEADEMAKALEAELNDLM
# UniProt O75534: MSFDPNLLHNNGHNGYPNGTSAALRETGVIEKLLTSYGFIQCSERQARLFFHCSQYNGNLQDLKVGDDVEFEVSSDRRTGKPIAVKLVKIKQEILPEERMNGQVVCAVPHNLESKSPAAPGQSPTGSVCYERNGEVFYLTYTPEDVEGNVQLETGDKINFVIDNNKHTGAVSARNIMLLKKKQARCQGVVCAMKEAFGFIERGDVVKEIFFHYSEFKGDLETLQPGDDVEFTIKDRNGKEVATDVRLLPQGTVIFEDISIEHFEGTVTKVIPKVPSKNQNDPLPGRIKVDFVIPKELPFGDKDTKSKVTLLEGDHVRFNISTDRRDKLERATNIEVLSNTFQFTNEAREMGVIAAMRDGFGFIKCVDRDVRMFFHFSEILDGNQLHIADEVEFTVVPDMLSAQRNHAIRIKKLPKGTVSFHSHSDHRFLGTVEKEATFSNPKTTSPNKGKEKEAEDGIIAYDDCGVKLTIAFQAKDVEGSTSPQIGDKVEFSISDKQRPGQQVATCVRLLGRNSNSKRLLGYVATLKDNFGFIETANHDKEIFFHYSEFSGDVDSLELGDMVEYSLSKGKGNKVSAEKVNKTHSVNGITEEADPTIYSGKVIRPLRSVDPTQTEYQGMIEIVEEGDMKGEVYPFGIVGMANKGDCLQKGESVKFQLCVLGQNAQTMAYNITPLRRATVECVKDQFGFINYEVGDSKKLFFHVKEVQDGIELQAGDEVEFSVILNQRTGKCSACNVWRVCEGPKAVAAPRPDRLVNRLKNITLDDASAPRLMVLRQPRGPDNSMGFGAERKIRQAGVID
# UniProt P49711: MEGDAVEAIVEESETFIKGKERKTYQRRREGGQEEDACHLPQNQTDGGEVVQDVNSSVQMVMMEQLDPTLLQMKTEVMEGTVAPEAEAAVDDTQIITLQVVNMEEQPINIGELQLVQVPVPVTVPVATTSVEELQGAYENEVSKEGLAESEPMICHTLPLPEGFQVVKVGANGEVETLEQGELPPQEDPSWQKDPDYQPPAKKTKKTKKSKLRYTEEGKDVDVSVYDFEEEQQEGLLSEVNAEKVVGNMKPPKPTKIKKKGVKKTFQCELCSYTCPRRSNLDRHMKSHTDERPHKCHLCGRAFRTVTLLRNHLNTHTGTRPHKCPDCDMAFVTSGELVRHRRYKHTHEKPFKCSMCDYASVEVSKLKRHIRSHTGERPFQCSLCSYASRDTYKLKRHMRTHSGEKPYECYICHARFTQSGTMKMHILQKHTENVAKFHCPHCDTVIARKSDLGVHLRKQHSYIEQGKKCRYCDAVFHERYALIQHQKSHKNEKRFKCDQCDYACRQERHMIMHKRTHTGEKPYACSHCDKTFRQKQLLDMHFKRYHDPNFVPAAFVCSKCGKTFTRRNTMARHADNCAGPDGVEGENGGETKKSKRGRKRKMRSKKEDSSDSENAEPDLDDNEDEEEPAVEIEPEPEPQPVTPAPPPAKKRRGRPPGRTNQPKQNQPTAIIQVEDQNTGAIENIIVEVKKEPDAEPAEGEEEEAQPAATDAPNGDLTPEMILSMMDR
# This is one part of the list.
# Compound: Cc1cc(ccc1-c1ccccc1)C(=O)N1CCCN(CC1)C(=O)CCl [compound 10]
# Experiment: probe-labelled cysteine peptide fold change vs DMSO (competition) (log2 fold change); higher = less target engagement (more negative = stronger competition)
# Conditions: THP-1, incubation time: 4 h
# 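Further: competitive profiling in live THP-1 cells: cysteine peptides tagged with an iodoacetamide desthiobiotin (IA-DTB) probe, intensity after compound treatment relative to DMSO-treated cells.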
Target,probe-labelled cysteine peptide fold change (10 µM),probe-labelled cysteine peptide fold change (50 µM)
CPSF1_Q10570_149_CAAMLVYGTR (UniProt Q10570),0.0731,0.0592
CPSF2_Q9P2I0_187_EIHLNGCSLEMLSR (UniProt Q9P2I0),0.0742,0.366
CRYBG1_Q9Y4K1_1404_ISSVQPICLDSFTGPR (UniProt Q9Y4K1),0.198,0.134
CTPS1_P17812_176_ENFCNIHVSLVPQPSSTGEQK (UniProt P17812),0.199,-0.102
CPSF6_Q16630_159_RELHGQNPVVTPCNK (UniProt Q16630),-0.0913,-0.231
COX19_Q49B96_61_EYLECR (UniProt Q49B96),-0.0134,0.219
CTC1_Q2NKJ3_535_NAHNEILEEPHHCPLQK (UniProt Q2NKJ3),-0.144,-0.283
CSNK2B_P67870_140_CMDVYTPK (UniProt P67870),0.083,-0.242
CTNNA1_P35221_438_LIEVANLACSISNNEEGVK (UniProt P35221),0.411,0.513
CPT2_P23786_326_VDSAVFCLCLDDFPIK (UniProt P23786),0.0902,0.0791
CRELD2_Q6UXH1_120_SEYPDLFEWFCVK (UniProt Q6UXH1),0.199,-0.0635
CPNE3_O75131_202_ISLNSLCYGDMDK (UniProt O75131),0.104,-0.158
CTPS2_Q9NRF8_216_GLGLSPDLIVCR (UniProt Q9NRF8),0.594,0.585
CS_O75390_211_LPCVAAK (UniProt O75390),-0.139,0.0879
CSK_P41240_31_YNFHGTAEQDLPFCK (UniProt P41240),0.0242,-0.17
CTPS1_P17812_299_LLETCSIALVGK (UniProt P17812),0.0506,0.127
CSK_P41240_122_ESTNYPGDYTLCVSCDGK (UniProt P41240),0.0217,0.145
CSTF2T_Q9H0L4_441_RGMETCAMETR (UniProt Q9H0L4),0.00912,-0.158
CSNK2B_P67870_114_VYCENQPMLPIGLSDIPGEAMVK (UniProt P67870),-0.145,-0.271
COX6B1_P14854_54_GGDISVCEWYQR (UniProt P14854),-0.526,-0.0457
CPSF2_Q9P2I0_82_LGLNCAIYATIPVYK (UniProt Q9P2I0),,0.326

Target,probe-labelled cysteine peptide fold change (10 µM),probe-labelled cysteine peptide fold change (50 µM)
CTDP1_Q9Y5B0_114_LEGCSHPVVMK (UniProt Q9Y5B0),0.0561,0.106
CTDP1_Q9Y5B0_277_DECIDPFSK (UniProt Q9Y5B0),-0.165,-0.467
CSRP1_P21291_40_SCFLCMVCK (UniProt P21291),0.000679,-0.0607
CRELD1_Q96HD1_105_SDFECHR (UniProt Q96HD1),-0.0218,0.227
CPM_P14384_138_KPDCYYSIGR (UniProt P14384),-0.113,-0.0372
CSDE1_O75534_186_CQGVVCAMK (UniProt O75534),-0.157,-0.153
CPNE8_Q86YQ8_196_SNEDGSFTICHK (UniProt Q86YQ8),0.205,0.413
CTBP2_P56545_44_DCTVEMPILK (UniProt P56545),-0.105,0.0492
CPSF2_Q9P2I0_578_QLIIVHGPPEASQDLAECCR (UniProt Q9P2I0),0.277,0.268
CORO7_P57737_691_IVWVCDGR (UniProt P57737),0.135,-0.245
CTCF_P49711_356_CSMCDYASVEVSK (UniProt P49711),0.465,-0.123
CRIP1_P50238_52+56_PYCNHPCYAAMFGPK (UniProt P50238),0.0432,-0.424
CORO7_P57737_363_KAVEFHEDLFPDTAGCVPATDPHSWWAGDNQQVQK (UniProt P57737),-0.379,-0.663
CORO7_P57737_790_TECDVR (UniProt P57737),-0.0936,-0.139
CSMD2_Q7Z408-3_2_CDAHLR (UniProt Q7Z408),0.077,-2.14
CS_O75390_101_GFSIPECQK (UniProt O75390),-0.0186,-0.0161
CSNK1D_P48730_241_MSTPIEVLCK (UniProt P48730),0.0154,-0.0426
CTCF_P49711_472_YCDAVFHER (UniProt P49711),-0.0978,-0.0657
CRYBB1_P53674_80_RAEFSGECSNLADR (UniProt P53674),-0.0898,0.0816
CSDE1_O75534_365_CVDRDVR (UniProt O75534),0.227,0.44

# Whole records from above. Order of values: probe-labelled cysteine peptide fold change (10 µM) | probe-labelled cysteine peptide fold change (50 µM)
# CTCF_P49711_356_CSMCDYASVEVSK (UniProt P49711) is entered as 0.465 | -0.123
# CTDP1_Q9Y5B0_277_DECIDPFSK (UniProt Q9Y5B0) is entered as -0.165 | -0.467
